# Values quoted from earlier work in patent US20040092491A1, “Method of treating sepsis-induced ARDS” (The Research Foundation of State University of New York, priority 2002, published 2004).
# For at least one compound, name, drawing or mass did not settle the structure.
# Test system: microbes
# Conditions: based on steady-state pharmacokinetics; cited from earlier work
row,SMILES,Plasma antibiotic threshold level [µg/mL]
1,"C[C@H]1c2cccc(O)c2C(=O)C2=C(O)[C@]3(O)C(=O)C(C(N)=O)=C(O)[C@@H](N(C)C)[C@@H]3[C@@H](O)[C@@H]21 [doxycycline, 6α-deoxy-5-hydroxytetracycline]",1.0
2,"CN(C)c1ccc(O)c2c1C[C@H]1C[C@H]3[C@H](N(C)C)C(O)=C(C(N)=O)C(=O)[C@@]3(O)C(O)=C1C2=O [minocycline, 7-dimethylaminotetracycline]",0.8
